Legend:
corn kernels = test: Levels of metabolites in gdhA+ vs gdhA− corn kernels; design: species or system Zea mays; settings: metabolite level in gdhA+ corn relative to gdhA− corn
[1] = tested on: gdhA+ Nicotiana tabacum plants; test: Metabolites with altered abundance in leaf and root extracts of gdhA+ vs gdhA− Nicotiana tabacum; settings: for Percent Change in abundance in gdhA+ plants compared to gdhA− plants: Nicotiana tabacum
[2] = root extracts, % changes are ±2%

Row | Compound | Factor for relative level in gdhA^+ vs. gdhA corn (corn kernels) | Percent Change in abundance in gdhA+ plants compared to gdhA− plants [1, 2] | further results
1 | 4-hydroxybutyl phosphate | 0.4 |  | 
2 | O=C(O)CC(O)C(=O)O.O=C(O)[C@@H](O)[C@H](O)CO (racemic) [DL-malic acid; Threonate] | 2.4 |  | 
3 | O=C[C@H](O)[C@@H](O)[C@H](O)[C@H](O)CO [D-glucose] | 1.9 |  | 
4 | O=C(/C=C/c1ccc(O)c(O)c1)O[C@@H]1C[C@](O)(C(=O)O)C[C@@H](O)[C@H]1O [Chlorogenic acid] | 2 |  | 
5 | CCCCC/C=C\C/C=C\CCCCCCCC(=O)O [Linoleic acid] | 0.8 |  | Percent Change in abundance in gdhA+ plants compared to gdhA− plants ([1]; leaf extracts, % changes are ±2%): 36%
6 | CSc1nccc(Cl)n1 [4-Chloro-2-methylthiopyrimidine] | 0.4 |  | 
7 | CC(=O)N[C@@H](Cc1ccc(O)cc1)C(=O)O [N-acetyl-L-tyrosine] |  | 49% | Percent Change ([1]; root extracts, metabolite abundance, gdhA+ vs gdhA− Nicotiana tabacum): 49%
8 | CN(C)CCC1CN(C)C(=S)c2cccnc2O1 (stereo not shown) [Rocastine] |  | 276% | Percent Change ([1]; root extracts, gdhA+ plants compared to gdhA− plants, % changes are ±2%): 276%
9 | CCCCCCCCCCCCCCCCC(=O)O [n-Heptadecanoic Acid] |  | 19% | Percent Change ([1]; fatty acids (Table 6Ii), tissue not given): 19%

From US8383887B2, “Methods of using plants containing the gdhA gene” (Southern Illinois University Carbondale, priority 2009, dated 2013)
